Measurements reported in PubChem BioAssay AID1224830 (NIAID, 2016)

- Assay: 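Host factors that control LPS-induced TNF expression in human macrophages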 (primary screen)
- System: human THP-1 monocytic leukaemia cells, TNF dual-luciferase reporter clone, PMA-differentiated to macrophage-like cells
- Knock-down reagent: siRNA pool against human genes, 50 nM
- Duration: LPS for 4 h, given about 3 days after siRNA transfection
- Treatment: bacterial LPS (TLR4 ligand), 10 ng/ml
- Measured: 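TNF firefly reporter luminescence divided by renilla, normalised to the plate median, then turned into a robust z-score for each replicate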
- Direction: TNF reporter robust z-score: higher = stronger TNF reporter response to LPS
- Active means: 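Each well counts as active if its z-score is over 2.8 or under -1.5; controls are left without a call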
This is a random part of about 18,000 deposited reagents. About 2,900 of all reagents (16%) were called active. 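Calls are made per well; low scores hint the gene aids the LPS response, high scores that it dampens it.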 Repeated entries: four replicate wells of each siRNA pool. Reagent sequences are not shown.

target	TNF reporter robust z-score	call
IFT70A	1.22	inactive
IFT70A	1.08	inactive
IFT70A	1.54	inactive
IFT70A	-0.04	inactive
CLDN23	-0.64	inactive
CLDN23	-0.76	inactive
CLDN23	-0.19	inactive
CLDN23	-0.47	inactive
UROS		inactive
UROS	0.8	inactive
UROS	0.09	inactive
UROS	1.78	inactive
UROS	-0.77	inactive
LPCAT3	1.24	inactive
LPCAT3	1.23	inactive
LPCAT3	0.89	inactive
LPCAT3	0.35	inactive
HMGA2	0.31	inactive
HMGA2	1.46	inactive
HMGA2	-0.33	inactive
HMGA2	0.92	inactive
CEACAM6	-0.92	inactive
CEACAM6	-0.62	inactive
CEACAM6	-0.83	inactive
CEACAM6	-0.95	inactive
SKOR1	0.66	inactive
SKOR1	0.44	inactive
SKOR1	3.88	active
SKOR1	2.36	inactive
DHRS12	0.56	inactive
DHRS12	-0.27	inactive
DHRS12	-0.58	inactive
DHRS12	0.61	inactive

Reagents above called active (1):
target	TNF reporter robust z-score	call
SKOR1	3.88	active

Continued:
target	TNF reporter robust z-score	call
CTSF	-0.22	inactive
CTSF	-0.85	inactive
CTSF	-0.02	inactive
CTSF	-0.79	inactive
REXO2	0.84	inactive
REXO2	1.05	inactive
REXO2	1.06	inactive
REXO2	1.19	inactive
FBXW4	0.12	inactive
FBXW4	0.97	inactive
FBXW4	2.98	active
FBXW4	-0.75	inactive
INTS12	0.42	inactive
INTS12	0.51	inactive
INTS12	-0.79	inactive
INTS12	4.03	active
TRIM23	-0.01	inactive
TRIM23	2.29	inactive
TRIM23	0.37	inactive
TRIM23	0.31	inactive
ELOVL4	-0.17	inactive
ELOVL4	-0.15	inactive
ELOVL4	0.02	inactive
ELOVL4	2.13	inactive
ODC1	0.37	inactive
ODC1	0.3	inactive
ODC1	0.78	inactive
ODC1	1.53	inactive
TNF	0.5	inactive
TNF	0.28	inactive
TNF	0.15	inactive
TNF	1.78	inactive
HOXB8	-0.9	inactive
HOXB8	-1.52	active
HOXB8	-1.22	inactive
RFLNA	0.53	inactive
RFLNA	-0.54	inactive
RFLNA	0.76	inactive
RFLNA	0.17	inactive
SRP68	-0.78	inactive
SRP68	-0.67	inactive
SRP68	-1.44	inactive
SRP68	-1.04	inactive
